Some results were stated once for a whole list of compounds, not compound by compound.
Test system: HEY ovarian cancer cells
Test: HEY cell proliferation, Trypan blue exclusion assay
Type: cell-based, human
Settings: dose-response
Experimental: HEY human ovarian carcinoma cells were obtained from Dr. Meera Nanjundan's laboratory at the University of South Florida. The cells were grown as a monolayer in a T25 tissue culture flask with 5 mL of growth medium and maintained in a 37° C. incubator with 5% CO2. The RPMI1640 growth medium was obtained from and American Type Culture Collection (ATCC) and Life Technologies (Carlsbad, Calif.). The medium was supplemented with 10% fetal bovine serum (FBS) and a mix of the antibiotics Penicillin (10,000 IU) and Streptomycin (10,000 μg/ml) in a 100× concentration which was purchased from Corning.
HEY cells were cultured in a T25 cell culture flask. 13,000 cells were seeded into each well in a 6-well culture plate. ACPD was weighed and dissolved in water to create a 100 mM stock solution. […] Cell viability was determined at 24, 48 and 72 hours using a Trypan blue exclusion assay where 30 μL of the cell suspension was added to 30 μL of Trypan blue. The number of unstained cells was counted using a hematocytometer. […]
The experiments were performed as per the protocol described by Patel et al. (2008), herein incorporated by reference. […] The proliferation was measured each day by a Trypan Blue exclusion assay which involved staining the cells with Trypan Blue and counting them under a microscope using a hemocytometer.

CC(=O)C1=C(O)CCC1=O [ACPD, 2-acetyl-1,3-cyclopentanedione]
concentration resulting in possible toxicity: Exceeding 10 μM

From patent publication US9301965B2, “Method of treating ovarian cancer using a PKC inhibitor” (University of South Florida, priority 2014, dated 2016)
